The values below come from the supplement of paper PMC8975748.

Where a name gives a salt, the structure may show the parent alone. ± gives the standard deviation of the averaged measurements. The list shows a part of the results. These are raw signals, not scaled to a control.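 The yeast community starts from one strain carrying four plasmids, each with an amino-acid or uracil synthesis gene and a fluorescent protein. Random plasmid loss creates mixed prototroph and auxotroph subpopulations. Cells were fixed and counted by automated confocal fluorescence imaging, and DMSO-treated wells served as the vehicle reference.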

The assay relates to Saccharomyces cerevisiae BY4741 SeMeCo community. Briefly: imaged cell count per well (cells); higher = more cells. The conditions noted are these: 10 µM; 24 h; SM minimal medium. The method, then:
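Same SeMeCo high-content imaging drug screen: Selleck FDA-approved drugs at 10 µM, 24 h in SM medium, 384-well plates, 3 replicates.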
For `CCCCCCCCCCCCCCCCCCOP(=O)([O-])OC1CC[N+](C)(C)CC1` [Perifosine (KRX-0401)], the “imaged cell count per well” value was found to be 2830 ± 990.

With `CO[C@@H]1[C@@H](O[C@@H]2O[C@H](C)[C@@H](O[C@H]3C[C@@](C)(O)[C@@H](O)[C@H](C)O3)[C@H](N(C)C)[C@H]2O)[C@@H](CC=O)C[C@@H](C)[C@@H](O[C@H]2CC[C@H](N(C)C)[C@@H](C)O2)/C=C/C=C/C[C@@H](C)OC(=O)C[C@H]1OC(C)=O` [Acetylspiramycin (ASPM)], the “imaged cell count per well” value stood at 26700 ± 8900.

On to `CCn1cc(C(=O)O)c(=O)c2cc(F)c(N3CCNCC3)cc21` [Norfloxacin], for which the “imaged cell count per well” value was found to be 28200 ± 4300.

Consider `CC(C[N+](C)(C)C)OC(N)=O` (centres undefined) [Bethanechol chloride], for which the “imaged cell count per well” value came to 18000 ± 7400.

Regarding `NC(=O)c1ncn([C@@H]2O[C@H](CO)[C@@H](O)[C@H]2O)n1` [Ribavirin], the “imaged cell count per well” value was 21100 ± 4400.

As to `CCCN1C[C@H](C)[C@@H](O)[C@](C)(O)[C@@H](CC)OC(=O)[C@H](C)[C@@H](O[C@H]2C[C@@](C)(OC)[C@@H](O)[C@H](C)O2)[C@H](C)[C@@H](O[C@@H]2O[C@H](C)C[C@H](N(C)C)[C@H]2O)[C@](C)(O)C[C@H]1C` [Gamithromycin], the “imaged cell count per well” value worked out at 26200 ± 5000.

On to `CO[C@@]1(NC(=O)Cc2cccs2)C(=O)N2C(C(=O)O)=C(COC(N)=O)CS[C@@H]21` [Cefoxitin sodium], for which the “imaged cell count per well” value stood at 24600 ± 9100.

`CCC(=O)NS(=O)(=O)c1ccc(-c2c(-c3ccccc3)noc2C)cc1` [Parecoxib]: the “imaged cell count per well” value was 23000 ± 2900.

For the compound `O=c1ccc2ccc(OCCCCN3CCN(c4cccc5sccc45)CC3)cc2[nH]1` [Brexpiprazole], the “imaged cell count per well” value is 26900 ± 2900.

Regarding `C[C@@H](c1nc(-c2ccc(C#N)cc2)cs1)[C@](O)(Cn1cncn1)c1cc(F)ccc1F` [Isavuconazole], the “imaged cell count per well” value was determined as 4330 ± 1500.

Turning to `C[C@H]1c2cccc(O)c2C(=O)C2=C(O)[C@]3(O)C(=O)C(C(N)=O)=C(O)[C@@H](N(C)C)[C@@H]3[C@@H](O)[C@@H]21` [Doxycycline monohydrate], the “imaged cell count per well” value stood at 26600 ± 3100.

With `Cc1ccc(-c2ncc(Cl)cc2-c2ccc(S(C)(=O)=O)cc2)cn1` [Etoricoxib], the “imaged cell count per well” value stood at 23800 ± 6400.

As for `Cc1c(C)c2c(c(C)c1O)CC[C@@](C)(CCC[C@H](C)CCC[C@H](C)CCCC(C)C)O2` [Vitamin E], the “imaged cell count per well” value turned out to be 31300 ± 3000.

As to `O=C(O)Cc1ccccc1Nc1c(Cl)cccc1Cl` [Diclofenac Diethylamine], the “imaged cell count per well” value amounted to 20100 ± 4000.

For the compound `Cn1c(=O)c2c(ncn2CC(O)CO)n(C)c1=O` (centres undefined) [Dyphylline], the “imaged cell count per well” value was found to be 22000 ± 7600.

With `CCN1CCN(C(=O)N[C@@H](C(=O)N[C@@H]2C(=O)N3C(C(=O)O)=C(CSc4nnnn4C)CS[C@H]23)c2ccc(O)cc2)C(=O)C1=O` [Cefoperazone], the “imaged cell count per well” value came out at 23300 ± 2700.

For `CO/N=C(\C(=O)N[C@@H]1C(=O)N2C(C(=O)O)=C(CSc3nc(=O)c(O)nn3C)CS[C@H]12)c1csc(N)n1` [Ceftriaxone Sodium Trihydrate], the “imaged cell count per well” value turned out to be 23500 ± 3600.

`Nc1ccc(S(=O)(=O)Nc2ccccn2)cc1` [Sulfapyridine]: the “imaged cell count per well” value was found to be 29000 ± 2300.

For `OC(c1cc(C(F)(F)F)nc2c(C(F)(F)F)cccc12)C1CCCCN1` (centres undefined) [Mefloquine HCl], the “imaged cell count per well” value is 22900 ± 6200.

For `O=C1c2c(O)ccc(O)c2C(=O)c2c(NCCNCCO)ccc(NCCNCCO)c21` [Mitoxantrone 2HCl], the “imaged cell count per well” value was 24500 ± 1500.

Regarding `CN1C(C(=O)Nc2ccccn2)=C(O)c2ccccc2S1(=O)=O` [Piroxicam], the “imaged cell count per well” value was 21000 ± 2400.

As to `C[C@]1(Cn2ccnn2)[C@H](C(=O)O)N2C(=O)C[C@H]2S1(=O)=O` [Tazobactam], the “imaged cell count per well” value is 21600 ± 13000.

Turning to `CN1CC2c3ccccc3Oc3ccc(Cl)cc3C2C1` (centres undefined) [Asenapine maleate], the “imaged cell count per well” value came out at 23900 ± 4000.

Consider `C=CCN1CCCC1CNC(=O)c1cc2nn[nH]c2cc1OC` (centres undefined) [Alizapride HCl], for which the “imaged cell count per well” value was 23700 ± 9000.

`Cc1cc(O)c(C(=O)N[C@@H](C(=O)N[C@@H]2C(=O)N3C(C(=O)O)=C(CSc4nnnn4C)CS[C@H]23)c2ccc(O)cc2)cn1` [Cefpiramide sodium]: the “imaged cell count per well” value was determined as 28100 ± 6200.

Take `CC(=O)O[C@H]1C[C@@]2(C)[C@@H](C[C@@H](O)[C@H]3[C@@]4(C)CC[C@@H](O)[C@@H](C)[C@@H]4CC[C@@]32C)/C1=C(\CCC=C(C)C)C(=O)O` [Fusidine]: the “imaged cell count per well” value was 25100 ± 2200.

In the case of `COc1ccc(C(=O)NCc2ccc(OCCN(C)C)cc2)cc1OC` [Itopride hydrochloride], the “imaged cell count per well” value was 23400 ± 4700.

For the compound `Cc1cc(C)nc(O)n1.O=C(Nc1ccc([N+](=O)[O-])cc1)Nc1ccc([N+](=O)[O-])cc1` [Nicarbazin], the “imaged cell count per well” value was 28000 ± 6400.

For the compound `CO[C@H]1C[C@@H]2CC[C@@H](C)[C@@](O)(O2)C(=O)C(=O)N2CCCC[C@H]2C(=O)O[C@H]([C@H](C)C[C@@H]2CC[C@H](n3cnnn3)[C@H](OC)C2)CC(=O)[C@H](C)/C=C(\C)[C@@H](O)[C@@H](OC)C(=O)[C@H](C)C[C@H](C)/C=C/C=C/C=C/1C` [Zotarolimus(ABT-578)], the “imaged cell count per well” value was determined as 7120 ± 2500.

For `CCCCCCCCOc1ccccc1C(=O)Nc1ccc(C(=O)OCC[N+](C)(CC)CC)cc1` [Otilonium Bromide], the “imaged cell count per well” value was 5170 ± 2000.

As for `Nc1ccc(S(=O)(=O)Nc2ncccn2)cc1` [Sulfadiazine], the “imaged cell count per well” value is 25500 ± 3700.

With `Nc1ccc(S(=O)(=O)Nc2cnc3ccccc3n2)cc1` [Sulfaquinoxaline sodium], the “imaged cell count per well” value was 25900 ± 4600.

Regarding `Cc1ccc(Cl)c(Nc2ccccc2C(=O)O)c1Cl` [Meclofenamate Sodium], the “imaged cell count per well” value came to 23000 ± 2900.

As to `Cc1nc2n(c(=O)c1CCN1CCC(c3noc4cc(F)ccc34)CC1)CCCC2O` (centres undefined) [Paliperidone], the “imaged cell count per well” value stood at 31300 ± 7600.

For `CO/N=C(\C(=O)N[C@@H]1C(=O)N2C(C(=O)O)=C(CSC(=O)c3ccco3)CS[C@H]12)c1csc(N)n1` [Ceftiofur HCl], the “imaged cell count per well” value came out at 19000 ± 4400.

Turning to `CC/C(=C(\c1ccccc1)c1ccc(OCCN(C)C)cc1)c1ccccc1` [Tamoxifen Citrate], the “imaged cell count per well” value turned out to be 32100 ± 3600.

Regarding `CO[C@@]1(NC(=O)C(C(=O)O)c2ccc(O)cc2)C(=O)N2C(C(=O)O)=C(CSc3nnnn3C)CO[C@@H]21` (some centres undefined) [Latamoxef sodium], the “imaged cell count per well” value amounted to 17300 ± 8900.

Regarding `C#C[C@]1(O)CC[C@H]2[C@@H]3CCC4=CC(=O)CC[C@@H]4[C@H]3CC[C@@]21CC` [Levonorgestrel], the “imaged cell count per well” value amounted to 25500 ± 1900.

For `CCCN[C@H]1CCc2nc(N)sc2C1` [Pramipexole], the “imaged cell count per well” value came to 23900 ± 4500.
